# Experimental data: patent US20260116957A1, “PHARMACEUTICAL COMPOSITION FOR AMELIORATING ACUTE LUNG INJURY AND ACUTE WORSENING OF PULMONARY FIBROSIS” (priority 2021, published 2026)
# Results are given in words; binding and its absence hold for the method and conditions named. Binding calls can cover weak binding; strength is not graded here.
# B1: Anticorisin monoclonal antibody clone 2A (antibody, V domains shown)
# VH: EVKLVESGGGLVQPGNSLTLSCVASGFTFTNYGMHWIRQAPKKGLEWIAMIYYDSSKMSYADTVKGRFTISRDNSKNTLYLEMNSLRSEDTAMYYCAAEGFGTPFPYWGQGTLVTVSS
# VL: DIVMTQTPSSRAVSAGEKVTMSCKSSQSLLYSENEKNYLAWYQQRPGQSPKLLIYWASTRESGVPDRFIGTGSGTDFTLTISSVQAEDLAVYYCQQYYHFPRTFGGGTRLELK
# B2: Anticorisin monoclonal antibody clone 4A (antibody, V domains shown)
# VH: EVQVLESGGGLVQPGNSLKLSCATSGFTFSTAWMYWYRQFPEKRLEWVARIKAKSNSYATDYTESVKGRFTISRDDSKGSIYLRMNNLKEEDTAIYYCASTDAFYFSHSYWGQGVLVTVSS
# VL: DIVMTQTPSSQAVSAGEKVTMRCRSSQSLLYSENKKNYLAWYQQKPGRSPKLLIYWASTGESGVPDRFIGSGSGTDFTLTISSVQAEDLAVYYCQQYYNFPLTFGSGTKLEIK
# Experiments:
# [1] = biological target: recombinant transglycosylase 351 (Staphylococcus nepalensis strain CNDG); assay: Western blot of transglycosylase 351 (FIG. 11b)
# [2] = biological target: recombinant transglycosylase 351 (Staphylococcus nepalensis strain CNDG); assay: Western blot of increasing amounts of recombinant transglycosylase 351, hybridoma supernatant 1:1000
Binder,binding [1],binding [2]
B1,binds,binds
B2,binds,binds
